# Whole data set: some 1,000 compounds, median “thermal shift dTm” near 0.19, cut for the highest 2% near 1.7. The list shows a part of the results. Active and inactive are the calls of the source.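 Rule for the calls: active = mean rise in melting temperature of at least 1 degC over same-plate control wells; inactive = below that, where a call was filed.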
# Protein sequences, listed by entry. Tags and fused reporters are not part of them. Lines headed by an entry give the natural chain unless they say otherwise; changes in a name come on top.
# UniProt O00391: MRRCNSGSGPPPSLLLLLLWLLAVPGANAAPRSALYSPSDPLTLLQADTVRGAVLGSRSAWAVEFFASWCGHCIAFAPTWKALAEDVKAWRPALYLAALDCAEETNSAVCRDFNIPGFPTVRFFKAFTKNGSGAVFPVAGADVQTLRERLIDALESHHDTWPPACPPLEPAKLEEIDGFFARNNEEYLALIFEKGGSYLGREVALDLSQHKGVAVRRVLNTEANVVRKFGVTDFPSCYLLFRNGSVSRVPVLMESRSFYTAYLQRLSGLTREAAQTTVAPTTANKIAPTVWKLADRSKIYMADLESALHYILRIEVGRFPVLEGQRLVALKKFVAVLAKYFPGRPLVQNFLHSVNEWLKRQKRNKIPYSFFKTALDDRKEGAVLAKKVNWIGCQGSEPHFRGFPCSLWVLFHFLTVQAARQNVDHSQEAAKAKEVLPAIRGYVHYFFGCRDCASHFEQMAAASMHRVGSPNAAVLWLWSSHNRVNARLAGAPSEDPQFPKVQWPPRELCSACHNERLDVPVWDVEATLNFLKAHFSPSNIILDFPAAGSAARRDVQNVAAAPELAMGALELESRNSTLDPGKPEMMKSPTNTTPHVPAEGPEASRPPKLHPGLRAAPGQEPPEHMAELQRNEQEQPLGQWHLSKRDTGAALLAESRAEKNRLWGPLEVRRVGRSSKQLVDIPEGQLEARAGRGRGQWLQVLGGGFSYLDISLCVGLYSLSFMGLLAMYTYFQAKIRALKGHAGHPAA
# Target: Sulfhydryl oxidase 1 (Homo sapiens) (UniProt O00391)
# Experiment: ligand-induced melting shift of human QSOX1 – biophysical, protein thermal shift, single concentration, QSOX1 inhibitor project, confirmation (AID 1347422);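 note: dTm is compound Tm minus mean Tm of DMSO-only wells on that plate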
# Details: recombinant hQSOX1 thermal shift, Sypro Orange, at 25 µM, stronger effect = higher value
row,SMILES,thermal shift dTm
1,COc1cc(CO)cc(Cl)c1OCc1cccc2ccccc12,0.21 °C
2,CC(=O)Nc1cccc(OCC(=O)Nc2ccc(Cl)cc2)c1,0.25 °C
3,O=C(Nc1ccc(N2CCOCC2)c(Cl)c1)c1ccccn1,0.14 °C
4,O=C(Cn1cnc2ccccc2c1=O)Nc1nnc(SCc2ccccc2Cl)s1,inactive: -0.04 °C
5,NC(=O)c1ccnc(-c2cc3ccccc3s2)c1,active: 1.16 °C
6,COc1ccc(C(=O)/C=C/c2cccc(OC)c2)cc1,active: 2.07 °C
7,COc1ccc(Cl)cc1NC(=O)Nc1ccccc1F,0.56 °C
8,CCC(=O)N1CCN(c2ccc(NC(=O)c3cccs3)cc2Cl)CC1,0.65 °C
9,CCOc1ccc(C2C(C#N)=C(N)Oc3cc(N)ccc32)cc1 (stereo unspecified),0.48 °C
10,CCOc1ccc(/C=C/C(=O)Nc2ccc(OC)cc2OC)cc1,0.02 °C
11,CSC1(NC#N)NCCc2c1[nH]c1ccccc21 (stereo unspecified),inactive: -0.05 °C
12,COc1ccc(-c2cc(-c3ccccc3)n3c(=O)c4ccccc4nc3n2)cc1,0.67 °C
13,CCC(=O)c1ccc(OCC(=O)Nc2ccc(NC(C)=O)cc2)cc1,inactive: -0.03 °C
14,CSC1=N/C(=C\c2ccc(-c3cccc(Cl)c3)o2)C(=O)S1,0.91 °C
15,COc1ccc2c(c1OC)C(=O)N(c1ccc(Cl)cc1)C2,0.81 °C
16,CC(=O)Nc1ccc(C(=O)NCCc2c[nH]c3ccc(C)cc23)cc1,0.86 °C
17,COc1ccc(-c2csc(-c3ccccc3)n2)cc1Br,0.11 °C
18,Cc1nnc2c3ccccc3nc(-c3ccc(Br)cc3)n12,inactive: -0.04 °C
19,CCOc1ccc(C(=O)Nc2ccc(-c3csc(C)n3)cc2)cc1,0.19 °C

row,SMILES,thermal shift dTm
1,N#Cc1cnc(SCC(=O)Nc2nc3ccccc3s2)nc1N,0.32 °C
2,CCCCOc1cccc(C(=O)Nc2cccc(-c3nn[nH]n3)c2)c1,0.74 °C
3,CCOC(=O)Cc1csc(NC(=O)c2ccc(C)o2)n1,0.1 °C
4,Cc1sc(NC(=O)Cc2cccs2)nc1-c1cccc(Cl)c1,inactive: -0.17 °C
5,O=C(Nc1nc2ccc(S(=O)(=O)N3CCCC3)cc2s1)c1ccco1,0.15 °C
6,O=C(COc1ccc(Cl)cc1Cl)NCCSCc1c(F)cccc1Cl,inactive: -0.12 °C
7,O=C(Nc1ccccc1)c1ccc(-c2cccnc2)o1,0.04 °C
8,Cc1cc(Cl)c(S(=O)(=O)NC2CCCCC2)cc1OCC(=O)Nc1nncs1,0.15 °C
9,Nc1c(C(=O)NC2CCCCC2)nnn1-c1cccc(Cl)c1,0.83 °C
10,Cc1ccc(NC(=O)Nc2cnccn2)cc1C,0.04 °C
11,COc1cccc(-c2nc3c(cnn3CC3CC=CCC3)[nH]2)c1O (stereo unspecified),0.61 °C
12,CC1Cc2cc(C(=O)Nc3ccc4c(c3)OCCO4)ccc2O1 (stereo unspecified),0.14 °C
13,Cn1c(SCCO)nc2c(c1=O)C1(CCCCC1)Cc1ccccc1-2,0.21 °C
14,Cc1sc(NC(=O)C(F)(F)F)nc1-c1ccc(Cl)cc1,0.25 °C
15,CC1CCN(C(=O)c2ccccc2C(=O)c2ccc(-c3ccccc3)cc2)CC1,0.16 °C
16,Cc1cc(O)c(-c2n[nH]c3c2C(c2ccccc2)N(Cc2ccco2)C3=O)cc1C (stereo unspecified),0.77 °C
17,Cc1cc(NC(=S)Nc2ccc(C)c(Cl)c2)n[nH]1,active: 1.55 °C
18,CCOc1ccc(S(=O)(=O)N2CCC(C(=O)NCCC3=CCCCC3)CC2)cc1,0.16 °C
19,CCC(Sc1nnnn1-c1ccccc1)C(=O)Nc1nnc(C(F)(F)F)s1 (stereo unspecified),0.99 °C

# 11 compounds out of the list, sorted by molecular weight, descending:
row,SMILES,thermal shift dTm
18,CCOc1ccc(S(=O)(=O)N2CCC(C(=O)NCCC3=CCCCC3)CC2)cc1,0.16 °C
16,Cc1cc(O)c(-c2n[nH]c3c2C(c2ccccc2)N(Cc2ccco2)C3=O)cc1C (stereo unspecified),0.77 °C
4,Cc1sc(NC(=O)Cc2cccs2)nc1-c1cccc(Cl)c1,inactive: -0.17 °C
1,N#Cc1cnc(SCC(=O)Nc2nc3ccccc3s2)nc1N,0.32 °C
2,CCCCOc1cccc(C(=O)Nc2cccc(-c3nn[nH]n3)c2)c1,0.74 °C
11,COc1cccc(-c2nc3c(cnn3CC3CC=CCC3)[nH]2)c1O (stereo unspecified),0.61 °C
14,Cc1sc(NC(=O)C(F)(F)F)nc1-c1ccc(Cl)cc1,0.25 °C
12,CC1Cc2cc(C(=O)Nc3ccc4c(c3)OCCO4)ccc2O1 (stereo unspecified),0.14 °C
17,Cc1cc(NC(=S)Nc2ccc(C)c(Cl)c2)n[nH]1,active: 1.55 °C
7,O=C(Nc1ccccc1)c1ccc(-c2cccnc2)o1,0.04 °C
10,Cc1ccc(NC(=O)Nc2cnccn2)cc1C,0.04 °C

# The list continues:

row,SMILES,thermal shift dTm
1,CCc1ccc(C(=O)Nc2ccc(S(=O)(=O)N(C)C)cc2)s1,0.48 °C
2,CCOC(=O)c1ccc(NC(=S)Nc2ccc(OCc3ccccc3)cc2)cc1,0.58 °C
3,Cc1ccccc1-n1c(CCC(=O)O)ccc1-c1ccc(Br)cc1,0.11 °C
4,OCc1ccc(OCc2ccc(F)cc2)c(Br)c1,0.58 °C
5,COc1ccc(-c2noc(CN(C(C)C)S(=O)(=O)c3ccccc3)n2)cc1,0.11 °C
6,Cc1ccc(COc2ccc(CO)cc2Br)cc1,0.54 °C
7,CC(=O)Nc1cccc(NC(=O)/C=C/c2cccs2)c1,inactive: -40.9 °C
8,COc1ccc(-c2c(-c3ccc(OC)c(C)c3O)n[nH]c2C(F)(F)F)cc1,0.76 °C
9,O=C(CCC1CCCN(C(=O)c2ccoc2)C1)NCc1ccccc1F (stereo unspecified),0.15 °C
10,CC(C)(C)c1ccc(OCCNC(=O)c2cccc(Cl)c2)cc1,0.12 °C
11,CCNC(=O)c1cc(-c2ccc(OC)cc2)nc2ccccc12,0.1 °C
12,Cc1cc(Cl)ccc1OCCNC(=O)c1ccc(Cl)cc1,0.17 °C
13,CCCCc1ccc(C(=O)Nc2cccc(-c3nn[nH]n3)c2)cc1,0.51 °C
14,COc1ccc(OC)c(NC(=O)Nc2cccc(NC(C)=O)c2)c1,active: 1.91 °C
15,COc1cccc(OCCOCCOc2ccc([N+](=O)[O-])cc2Cl)c1,0.11 °C
16,Cc1ccc(-n2nnnc2SCC(=O)Nc2nnc(C(F)(F)F)s2)cc1C,active: 1.27 °C
17,COc1cccc(C(=O)Nc2ccc(N3CCCC3)cc2)c1,0.39 °C
18,N/C(Cc1ccc(Cl)c(Cl)c1)=N\OC(=O)c1ccc2c(c1)OCO2,0.21 °C
